Source: article PMC12272085
Results are given in words; binding and its absence hold for the method and conditions named. For some assays here: In cells and extracts the contact can be indirect. Some entries that bind do so weakly or less than the wild type. For some assays here: Sequences can lack the tags named with a protein.

Chains of the proteins cited; added tags and fusions are not shown. Lines headed by an entry give the natural chain unless they say otherwise; changes in a name come on top. A line that says so, or that is headed by a name, gives the form on record, which may keep a tag or linker.
UniProt Q92804: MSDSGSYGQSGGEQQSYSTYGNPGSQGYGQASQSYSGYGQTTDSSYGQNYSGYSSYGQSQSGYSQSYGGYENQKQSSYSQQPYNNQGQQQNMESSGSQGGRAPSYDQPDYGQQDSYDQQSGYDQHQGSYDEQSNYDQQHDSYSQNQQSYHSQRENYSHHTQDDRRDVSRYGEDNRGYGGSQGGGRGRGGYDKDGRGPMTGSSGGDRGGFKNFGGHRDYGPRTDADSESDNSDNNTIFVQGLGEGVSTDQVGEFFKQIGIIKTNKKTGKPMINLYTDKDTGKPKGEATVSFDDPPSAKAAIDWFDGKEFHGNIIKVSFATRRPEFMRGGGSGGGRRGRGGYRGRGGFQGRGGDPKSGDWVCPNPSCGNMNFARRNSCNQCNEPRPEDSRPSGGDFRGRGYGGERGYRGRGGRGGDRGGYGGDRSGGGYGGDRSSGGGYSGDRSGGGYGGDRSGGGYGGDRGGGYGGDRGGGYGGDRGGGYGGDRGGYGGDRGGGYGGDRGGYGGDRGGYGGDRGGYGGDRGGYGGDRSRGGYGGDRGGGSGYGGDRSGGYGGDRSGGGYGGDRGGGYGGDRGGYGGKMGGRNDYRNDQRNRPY
3xFlag-tagged full-length hnRNPA1 (P09651, form named): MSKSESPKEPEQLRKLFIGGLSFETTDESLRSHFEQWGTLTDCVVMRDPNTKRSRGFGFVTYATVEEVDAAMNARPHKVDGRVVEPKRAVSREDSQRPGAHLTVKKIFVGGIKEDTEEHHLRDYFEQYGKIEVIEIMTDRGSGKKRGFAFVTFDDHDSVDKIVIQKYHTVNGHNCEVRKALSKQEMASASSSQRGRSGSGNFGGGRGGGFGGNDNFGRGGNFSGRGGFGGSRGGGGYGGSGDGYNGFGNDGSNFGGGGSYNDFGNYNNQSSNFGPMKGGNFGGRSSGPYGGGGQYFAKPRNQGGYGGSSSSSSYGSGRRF
UniProt P19338: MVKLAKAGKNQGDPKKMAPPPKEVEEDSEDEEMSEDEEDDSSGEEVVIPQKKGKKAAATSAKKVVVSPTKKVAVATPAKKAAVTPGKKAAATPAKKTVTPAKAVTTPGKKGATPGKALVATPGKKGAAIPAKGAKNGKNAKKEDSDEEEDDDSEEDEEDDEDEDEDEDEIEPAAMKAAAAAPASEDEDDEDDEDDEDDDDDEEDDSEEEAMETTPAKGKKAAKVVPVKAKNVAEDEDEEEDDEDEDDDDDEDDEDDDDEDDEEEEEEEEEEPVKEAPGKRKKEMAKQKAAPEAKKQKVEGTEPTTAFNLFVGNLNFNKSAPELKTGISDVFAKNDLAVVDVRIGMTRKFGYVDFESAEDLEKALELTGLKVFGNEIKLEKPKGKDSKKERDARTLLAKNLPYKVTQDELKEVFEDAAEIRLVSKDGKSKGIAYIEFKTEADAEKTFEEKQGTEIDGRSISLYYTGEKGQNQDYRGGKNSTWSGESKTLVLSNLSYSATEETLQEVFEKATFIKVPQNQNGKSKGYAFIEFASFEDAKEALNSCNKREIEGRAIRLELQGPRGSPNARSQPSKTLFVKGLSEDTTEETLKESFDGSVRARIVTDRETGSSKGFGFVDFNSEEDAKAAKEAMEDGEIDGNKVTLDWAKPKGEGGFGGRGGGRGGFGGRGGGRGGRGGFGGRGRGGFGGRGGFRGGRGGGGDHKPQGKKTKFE

Tests used:
[1] = target: T1, 3xFlag-tagged full-length GAR1 (UniProt Q9NY12); experiment: co-IP; FLAG-tagged substrate and Myc-PRMT1 (WT or mutant) co-transfected in HEK293T; nuclear and cytoplasmic extracts on anti-Flag resin 2 h, Flag peptide elution, anti-MYC blot
T1 sequence: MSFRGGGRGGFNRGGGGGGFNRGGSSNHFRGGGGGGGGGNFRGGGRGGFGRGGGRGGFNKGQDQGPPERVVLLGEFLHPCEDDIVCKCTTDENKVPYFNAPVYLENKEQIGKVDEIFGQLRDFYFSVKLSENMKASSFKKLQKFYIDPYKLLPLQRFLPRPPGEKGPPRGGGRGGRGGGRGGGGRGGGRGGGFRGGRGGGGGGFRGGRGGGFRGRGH

FLAG-tagged TAF15 = FLAG-tagged TAF15 (UniProt Q92804); experiment: as above
FLAG-tagged RBFOX2 = target: T2, FLAG-tagged RBFOX2 (UniProt O43251); experiment: as above
T2 sequence: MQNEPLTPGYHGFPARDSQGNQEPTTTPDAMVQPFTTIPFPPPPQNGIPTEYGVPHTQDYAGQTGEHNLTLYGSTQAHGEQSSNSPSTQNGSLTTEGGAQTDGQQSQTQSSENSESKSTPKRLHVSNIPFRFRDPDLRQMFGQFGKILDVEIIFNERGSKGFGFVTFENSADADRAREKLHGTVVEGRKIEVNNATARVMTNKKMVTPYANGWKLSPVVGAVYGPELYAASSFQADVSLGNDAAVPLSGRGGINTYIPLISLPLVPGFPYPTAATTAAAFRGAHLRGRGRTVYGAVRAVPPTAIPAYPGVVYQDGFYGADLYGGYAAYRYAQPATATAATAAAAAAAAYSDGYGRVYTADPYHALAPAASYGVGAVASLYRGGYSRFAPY

[2] = target: 3xFlag-tagged full-length hnRNPA1 (UniProt P09651); experiment: as above
[3] = target: 3xFlag-tagged full-length hnRNPK (UniProt P61978); experiment: as above
[4] = target: T3, 3xFlag-tagged full-length Fibrillarin (UniProt P22087); experiment: as above
T3 sequence: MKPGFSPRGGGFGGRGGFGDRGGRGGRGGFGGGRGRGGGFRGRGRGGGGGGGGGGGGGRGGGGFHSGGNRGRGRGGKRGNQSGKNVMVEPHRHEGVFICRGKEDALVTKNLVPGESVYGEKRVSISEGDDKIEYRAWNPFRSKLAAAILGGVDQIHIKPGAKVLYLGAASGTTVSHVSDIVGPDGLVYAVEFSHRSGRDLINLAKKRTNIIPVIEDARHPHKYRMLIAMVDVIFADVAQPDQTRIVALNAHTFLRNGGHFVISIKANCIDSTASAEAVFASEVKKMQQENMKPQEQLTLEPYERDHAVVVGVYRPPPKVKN

[5] = target: 3xFlag-tagged full-length Nucleolin (UniProt P19338); experiment: as above
GST-hnRNPK = GST-hnRNPK (UniProt P61978); experiment: pull-down; GST- or FLAG-tagged substrate on GST beads or anti-FLAG resin, mixed with purified PRMT; 50 mM Tris-HCl pH 8.0, 150 mM NaCl, 2 mM DTT, 10% glycerol, 0.1% NP40, 1 h at 4 C; Coomassie staining; both purified
MBP-Fibrillarin-FLAG = target: T4, MBP-Fibrillarin-FLAG (UniProt P22087); experiment: as above
T4 sequence: T3 sequence

GST-GAR1 = target: T5, GST-GAR1 (UniProt Q9NY12); experiment: as above
T5 sequence: T1 sequence

[6] = target: T6, fibrillarin of the PRMT1-Fibrillarin complex (SEC and cryo-EM sample) (UniProt P22087); experiment: SEC; PRMT1-substrate complex on Superose 6 Increase 10/300GL, with PRMT1 oligomers and dimers as controls; fractions on SDS-PAGE; both purified
T6 sequence: T3 sequence

Measured: binding

MYC-PRMT1, wild type, full length (from UniProt Q99873 1-371) (enzyme)
not listed: GST-hnRNPK | MBP-Fibrillarin-FLAG | GST-GAR1 | [6]
binds: all other assays above

human PRMT1 (residues 32-371), wild type (from UniProt Q99873 32-371) (enzyme)
binds: GST-hnRNPK | MBP-Fibrillarin-FLAG | GST-GAR1 | [6]
